Drawing on article PMC7581431, this text covers binding for 2 molecules.

Assay [1] has as its target T1, RFP-NKD1-EF (human) (UniProt Q969G9).
T1 sequence: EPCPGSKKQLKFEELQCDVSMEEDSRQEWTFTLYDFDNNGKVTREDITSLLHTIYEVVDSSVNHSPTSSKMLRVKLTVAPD
Description: SEC-MALS; purified proteins and preformed complexes, Superdex-200 10/300, 2 mg/ml, 15 mM TrisHCl, 150 mM NaCl, pH 7.4; both purified. (In gel filtration, larger molecules generally elute earlier.)

Assay [2] has as its target T1, RFP-NKD1-EF (human). Put plainly: condition: 696 μM Lip-DVL2-PDZ-V334E injected into 17.2 μM RFP-NKD-EF; ITC; MicroCal iTC200, 15 mM Tris-HCl, 150 mM NaCl, pH 7.4; Lip-DVL2-PDZ or Lip-DVL2-PDZ-V334E (696 μM) injected into 17.2 μM RFP-NKD-EF; both purified.

Residue numbers refer to the chain shown, from its start. In names and notes the source's numbering stands. These are yes or no findings as the source states them, for the method shown. Some binding calls cover weakened binding; strength is not graded here.

B1: Lip-DVL2-PDZ (domain or fragment, UniProt O14641 285-373)
chain: QSNERGDGGIYIGSIMKGGAVAADGRIEPGDMLLQVNDMNFENMSNDDAVRVLRDIVHKPGPIVLTVAKCWDPSPQAYFTLPRNEPIQP
B1: the binding entry in the assay with RFP-NKD1-EF (human) [1] was “binds”.

B2: Lip-DVL2-PDZ-V334E (domain or fragment, UniProt O14641 285-373)
chain: B1 chain with V50E
For the molecule B2, in the assay with RFP-NKD1-EF (human) [2], the binding result is listed as “no binding”.
